In publication PMC11142717:
No constants are given. Whether binding was seen depends on the method and setting.

Target: VACV E9 with an uncleaved His-tag (isolated polymerase, construct of ref. 21) (vaccinia virus (VACV)) (UniProt P20509)
Experiment: BLI; both purified

Q: “wild-type VACV D4 (isolated) (from UniProt P20536 1-218) (enzyme)” was tested. Which binding did it give?
A: no binding
